Results from article PMC12720343.
Results are given in words; binding and its absence hold for the method and conditions named. In cells and extracts the contact can be indirect. Some binding calls cover weakened binding; strength is not graded here. Sequences can lack the tags named with a protein.

Experiments:
Test in all cases: pull-down; cells producing His-SpoIIQ_(44-283) variants mixed with cells producing SpoIIIAH_(26-218)-S, lysed together (50 mM Tris-HCl pH 8.0, 150 mM NaCl), loaded on Ni Sepharose HP, washed with 40 mM imidazole, eluted with 1 M imidazole; Western blot against S-tag and His-tag
[1] = target: T1, His-SpoIIQ_(44-283) (Bacillus subtilis) (UniProt P71044)
T1 sequence: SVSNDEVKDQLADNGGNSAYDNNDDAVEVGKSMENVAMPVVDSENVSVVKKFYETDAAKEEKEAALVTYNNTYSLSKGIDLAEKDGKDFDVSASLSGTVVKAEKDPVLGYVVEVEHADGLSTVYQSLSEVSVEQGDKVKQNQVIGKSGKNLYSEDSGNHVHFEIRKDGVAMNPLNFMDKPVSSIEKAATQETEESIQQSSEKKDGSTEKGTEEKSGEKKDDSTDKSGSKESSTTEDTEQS

[2] = target: T2, His-SpoIIQL118F_(44-283) (Bacillus subtilis) (UniProt P71044)
T2 sequence: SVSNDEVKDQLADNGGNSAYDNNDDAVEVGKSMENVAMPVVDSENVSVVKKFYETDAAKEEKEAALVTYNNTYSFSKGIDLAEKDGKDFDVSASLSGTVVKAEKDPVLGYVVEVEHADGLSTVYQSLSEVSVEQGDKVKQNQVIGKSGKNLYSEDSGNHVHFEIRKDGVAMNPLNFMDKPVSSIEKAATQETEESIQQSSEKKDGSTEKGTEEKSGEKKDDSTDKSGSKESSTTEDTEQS

[3] = target: T3, His-SpoIIQL109/118E_(44-283) (Bacillus subtilis) (UniProt P71044)
T3 sequence: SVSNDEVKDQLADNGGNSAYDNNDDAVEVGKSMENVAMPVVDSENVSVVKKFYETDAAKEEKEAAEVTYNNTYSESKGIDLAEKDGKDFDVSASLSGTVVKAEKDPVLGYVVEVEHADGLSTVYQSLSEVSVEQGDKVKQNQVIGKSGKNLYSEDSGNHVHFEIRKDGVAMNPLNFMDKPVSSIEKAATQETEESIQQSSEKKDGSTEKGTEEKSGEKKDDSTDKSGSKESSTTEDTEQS

binding [1]: binds
binding [2]: binds
binding [3]: no binding
B1: SpoIIIAH_(26-218)-S (domain or fragment, UniProt P49785 26-218)
chain: SPESKNAVQMQSEKSASDSGEVATEKAPAKQDTKEKSGTETEKGKEDGTKGTKDSSADKETSAEASEKGTVVTETADDDLFTTYRLDLEDARSKEREELNAIVSSDDATAKEKSEAYDKMTALSEVEGTEKQLETLIKTQGYEDALVNAEGDKINITVKSDKHSKSKATAIIDLVAKEIKTMKDVAVTFEPSK
